No constants are given. Whether binding was seen depends on the method and setting. For part of these data: Binding calls can cover weak binding; strength is not graded here. For part of these data: In cells and extracts the contact can be indirect. Each block holds one binder with its values, some of them ahead of it.
Tests used:
[1] = molecular target: Microtubules (MTs) polymerized in vitro; assay: co-sedimentation; MT-pelleting assay with Taxol-stabilized MTs; pellet and supernatant fractions; both purified
[2] = molecular target: GFP–Spef1 N-terminal truncation (CH domain, mouse) (mouse); assay: co-IP; proteins transiently expressed in HEK293T cells, then co-immunoprecipitation
[3] = molecular target: GFP–Spef1 C-terminal truncation (CC domain, mouse) (mouse); assay: as above

binding [1]: binds
B1: Ccdc13 (1–300) (domain or fragment, UniProt D3YV10 1-300)
chain: MAADESSADTLRLQFKAMQELQHRRLQKQMEKKREKELSCQSKADNQEGFMVIPDGLSLLDTEEQNLKNIFEKRVLEDEIQHLRSELRETVDENGRLYKLLKERDFEIKHLKKKIEEDRFAFTGASGMAGDLVATKIVELSKKNRGLMAESESAKVRIKQLTNRIQELEHQLQMASAKPPSKGATDAGAKPLKTQTGDRALLETPEVKALQDRLAATNLKMSDLRNQIQSAKQELRVAQKVLANEVGEDVNIQQLLASPGTWRGRAQQILVLQSRVRDLEKQLGQRQNKPAGSSSSEVPL

binding [2]: no binding
binding [3]: binds
B2: Mouse Ccdc13 expressed in HEK293T cells (protein, UniProt D3YV10 1-709)
chain: MAADESSADTLRLQFKAMQELQHRRLQKQMEKKREKELSCQSKADNQEGFMVIPDGLSLLDTEEQNLKNIFEKRVLEDEIQHLRSELRETVDENGRLYKLLKERDFEIKHLKKKIEEDRFAFTGASGMAGDLVATKIVELSKKNRGLMAESESAKVRIKQLTNRIQELEHQLQMASAKPPSKGATDAGAKPLKTQTGDRALLETPEVKALQDRLAATNLKMSDLRNQIQSAKQELRVAQKVLANEVGEDVNIQQLLASPGTWRGRAQQILVLQSRVRDLEKQLGQRQNKPAGSSSSEVPLSSDSRKMTAQEKNLLRIRSLERDKQESWEKLASERDTLQTELEELRKKFEGMRSRNKVLSSEVKTLRSQMTTLVEKGRHDDELIDALMDQLKQLQDILSSLSVQEESRRTSQQHLDQKVNSEAQRSSSLVAQLRAMVADREAKVRQLELEIGQLSVQYLHGKGGGEGASPADARFPEDQTPITNSPASAGDHVGRLGSSRSVTSLGHTLVESALTRPSLPSPHGTSPRFSDSPEQKGWQAQAAEMKALWQAAEVERDRLNEFVTVLQKRVEESSSKLLEAERRLQEERQRAVLLEQHLEKMRLEPSRASVSQKTKNKPGPPAANTKPNSAGSAKKDSSSTQLCDMPMESQIQELNARLAIQMEENGILRDALGSALRGKEEDFRMYHQTLGQVKGVFLQALRQQKANKQ

Source: publication PMC12147715
